Experimental data: PubChem BioAssay AID720505 (Drosophila RNAi Screening Center, 2013)

Screen: 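Genes needed for store-operated calcium entry in fly cells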 (primary screen)
System: Drosophila S2R+ cells
Knock-down reagent: long dsRNA against Drosophila genes
Challenge: thapsigargin (2 µM) in calcium-free buffer to empty internal stores, then 2 mM calcium added back
Read-out: 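Fluo-4 signal in 384-well plates read on a FLIPR after thapsigargin (2 µM, calcium-free) store depletion and 2 mM calcium add-back; unnormalised mean endpoint per well; screen run twice, selected wells retested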
Reading the numbers: calcium signal and retest calcium signal: higher = more calcium entry after store depletion
Call rule: 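Knock-downs counted as hits when calcium entry dropped relative to STIM1 positive and Rho1 negative controls present on each plate; roughly 1500 genes called, with reductions of differing size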
Meaning of the calls: active = called as lowering calcium entry; inactive = not called
In all, the deposit lists about 20,000 reagents; this is an unselected part of those that have a named target and a result. Over the whole deposit, about 2,100 (10%) got an active call. 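Raw plate signals without normalisation; calls rest on control-based scores that were not deposited; replicate 2 separates called from uncalled poorly.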 Unmarked entries are inactive. Reagents against one gene are numbered here. Names joined by + are all predicted targets of the reagent. Not stated in the record: the amount of reagent, the time to read-out.

no.	Gene	reagent	calcium signal, replicate 1	calcium signal, replicate 2	retest calcium signal, replicate 1	retest calcium signal, replicate 2
1	CG13024	1	88.5	141		
2	CG13408	1	159	168		
3	mRpS28	1	172	152		
4	CG14626	1	112	130		
5	dao	1	141	117		
6	CG5644	1	79.2	52.4		
7	Veneno	1	132	147		
8	CG12783	1	108	124		
9	CG15143	1	127	139		
10	RtGEF	1	121	106		
11	RtGEF	2	89.1	268		
12	CG10089	1	99.6	114		
13	CG10089	2	102	105		
14	CG9861	1	165	113		
15	CG31917 + Tfb5	1	142	87.6		
16	CG31917 + Tfb5	2	139	86.3		
17	CtsB	1	79.5	68.7		
18	CG5568	1	88.8	102	153	105
19	CG5568	2	88.2	83.2		
20	CG14834	1	75.9	65.8		
21	pb	1	136	173		
22	Roe1	1	164	161		
23	Ir94b	1	118	67.2		
24	mio	1	58.7 (active)	148		
25	mio	2	78	206		
26	CG12511	1	111	86.2		
27	CG43707	1	182	96.4		
28	CG43707	2	59.7 (active)	98		
29	CG43707	3	105	178		
30	hrm	1	96.5	223		
31	Kdm4A	1	163	212		
32	wal	1	193	120		
33	dpr13	1	94.6	100		
34	dpr13	2	98.2	105		
35	Obp50a	1	89.7	175		
36	sog	1	90	95.7		
37	CG43393	1	74	6063		
38	Cpr49Ad	1	101	169		
39	CG42404	1	120	196		
40	Cyp6a15Psi	1	128	127		
41	Tehao	1	103	174		
42	CG12115	1	55.8	91.9		
43	CG14860	1	112	174		
44	CG13476	1	155	191		
45	nerfin-2	1	112	75.2		
46	CAH13	1	147	165		
47	Top1	1	50.1 (active)	93.7		
48	CG40551 (retired record)	1	170	117		
49	CG13722	1	85.2	78.1		
50	CG13722	2	136	92.8		
51	apn	1	133	83		
52	kat80	1	82.4	156		
53	kat80	2	99.6	143		
54	comm3	1	82.1	154		
55	comm3	2	92.3	179		
56	comm3	3	128	127		

An excerpt from the list above:
no.	Gene	reagent	calcium signal, replicate 1	calcium signal, replicate 2	retest calcium signal, replicate 1	retest calcium signal, replicate 2
25	mio	2	78	206		
26	CG12511	1	111	86.2		
27	CG43707	1	182	96.4		
28	CG43707	2	59.7 (active)	98		
29	CG43707	3	105	178		
30	hrm	1	96.5	223		
31	Kdm4A	1	163	212		
32	wal	1	193	120		
33	dpr13	1	94.6	100		
